From the supplement of paper PMC10849652
Some of the results follow.

Protein sequences, listed by entry. Tags and fused reporters are not part of them. Lines headed by an entry give the natural chain unless they say otherwise; changes in a name come on top.
UniProt Q6P9F7: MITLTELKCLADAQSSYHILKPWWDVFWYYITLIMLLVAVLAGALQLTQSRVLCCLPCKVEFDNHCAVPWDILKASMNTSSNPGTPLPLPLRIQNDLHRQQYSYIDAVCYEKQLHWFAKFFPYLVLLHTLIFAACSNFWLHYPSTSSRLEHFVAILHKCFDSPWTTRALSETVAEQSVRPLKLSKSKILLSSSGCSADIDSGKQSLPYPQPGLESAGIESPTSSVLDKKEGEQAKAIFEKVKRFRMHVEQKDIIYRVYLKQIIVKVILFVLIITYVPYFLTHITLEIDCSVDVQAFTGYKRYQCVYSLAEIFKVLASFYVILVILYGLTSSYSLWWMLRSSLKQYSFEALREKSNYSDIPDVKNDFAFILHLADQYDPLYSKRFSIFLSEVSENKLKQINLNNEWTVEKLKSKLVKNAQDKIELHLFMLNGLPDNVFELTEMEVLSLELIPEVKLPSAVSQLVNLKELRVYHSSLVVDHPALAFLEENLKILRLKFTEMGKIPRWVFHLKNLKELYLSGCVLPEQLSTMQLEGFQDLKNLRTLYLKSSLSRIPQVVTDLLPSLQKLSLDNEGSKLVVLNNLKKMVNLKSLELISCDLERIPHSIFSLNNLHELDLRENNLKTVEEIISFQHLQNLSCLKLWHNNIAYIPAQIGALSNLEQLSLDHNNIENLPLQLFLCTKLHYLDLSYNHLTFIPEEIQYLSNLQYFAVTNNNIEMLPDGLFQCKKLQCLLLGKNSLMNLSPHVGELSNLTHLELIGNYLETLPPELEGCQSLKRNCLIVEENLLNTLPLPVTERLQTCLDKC
UniProt P43355: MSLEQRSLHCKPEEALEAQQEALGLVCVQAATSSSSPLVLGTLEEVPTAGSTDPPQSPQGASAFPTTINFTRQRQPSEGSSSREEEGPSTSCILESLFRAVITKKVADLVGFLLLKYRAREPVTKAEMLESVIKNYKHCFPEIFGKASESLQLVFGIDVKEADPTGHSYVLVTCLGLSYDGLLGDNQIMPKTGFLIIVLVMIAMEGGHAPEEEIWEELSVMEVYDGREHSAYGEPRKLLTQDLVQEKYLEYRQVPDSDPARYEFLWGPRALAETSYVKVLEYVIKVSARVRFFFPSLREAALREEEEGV
UniProt Q15759, whole entry, looked up: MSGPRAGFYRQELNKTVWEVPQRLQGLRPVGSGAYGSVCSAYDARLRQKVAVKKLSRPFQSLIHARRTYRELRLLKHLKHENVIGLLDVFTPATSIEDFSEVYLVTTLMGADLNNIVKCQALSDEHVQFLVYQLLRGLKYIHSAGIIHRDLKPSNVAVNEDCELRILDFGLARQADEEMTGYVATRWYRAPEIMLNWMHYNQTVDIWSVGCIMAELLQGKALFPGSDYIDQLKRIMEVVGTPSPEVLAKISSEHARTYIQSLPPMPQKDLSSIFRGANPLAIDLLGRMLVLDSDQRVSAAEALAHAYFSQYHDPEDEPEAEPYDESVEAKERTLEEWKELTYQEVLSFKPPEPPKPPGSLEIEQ
UniProt Q9C099: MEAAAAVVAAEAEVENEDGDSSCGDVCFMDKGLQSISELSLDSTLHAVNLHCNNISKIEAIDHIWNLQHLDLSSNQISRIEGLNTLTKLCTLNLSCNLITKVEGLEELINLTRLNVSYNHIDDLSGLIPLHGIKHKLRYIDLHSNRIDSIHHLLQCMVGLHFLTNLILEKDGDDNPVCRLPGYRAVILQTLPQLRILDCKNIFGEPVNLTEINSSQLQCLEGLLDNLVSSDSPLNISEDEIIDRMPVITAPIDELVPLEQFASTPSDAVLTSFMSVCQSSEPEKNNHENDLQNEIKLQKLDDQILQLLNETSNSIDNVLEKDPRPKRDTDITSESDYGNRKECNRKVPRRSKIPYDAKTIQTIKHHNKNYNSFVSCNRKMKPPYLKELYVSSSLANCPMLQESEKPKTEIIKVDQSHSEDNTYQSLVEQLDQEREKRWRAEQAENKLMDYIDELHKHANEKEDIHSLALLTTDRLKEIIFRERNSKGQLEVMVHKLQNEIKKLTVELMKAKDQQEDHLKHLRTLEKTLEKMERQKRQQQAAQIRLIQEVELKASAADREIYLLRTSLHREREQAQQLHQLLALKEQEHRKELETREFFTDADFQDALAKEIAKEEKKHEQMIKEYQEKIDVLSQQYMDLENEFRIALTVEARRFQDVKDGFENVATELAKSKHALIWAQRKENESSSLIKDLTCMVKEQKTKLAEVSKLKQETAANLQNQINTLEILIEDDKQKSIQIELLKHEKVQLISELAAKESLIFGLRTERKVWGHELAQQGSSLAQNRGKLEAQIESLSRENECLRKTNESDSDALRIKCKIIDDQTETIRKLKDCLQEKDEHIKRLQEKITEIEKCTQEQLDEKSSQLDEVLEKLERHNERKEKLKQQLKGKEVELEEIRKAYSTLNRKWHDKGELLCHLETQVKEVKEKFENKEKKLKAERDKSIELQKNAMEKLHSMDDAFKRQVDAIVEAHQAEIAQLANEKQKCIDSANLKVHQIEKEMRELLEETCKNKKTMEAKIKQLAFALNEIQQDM
UniProt Q13163: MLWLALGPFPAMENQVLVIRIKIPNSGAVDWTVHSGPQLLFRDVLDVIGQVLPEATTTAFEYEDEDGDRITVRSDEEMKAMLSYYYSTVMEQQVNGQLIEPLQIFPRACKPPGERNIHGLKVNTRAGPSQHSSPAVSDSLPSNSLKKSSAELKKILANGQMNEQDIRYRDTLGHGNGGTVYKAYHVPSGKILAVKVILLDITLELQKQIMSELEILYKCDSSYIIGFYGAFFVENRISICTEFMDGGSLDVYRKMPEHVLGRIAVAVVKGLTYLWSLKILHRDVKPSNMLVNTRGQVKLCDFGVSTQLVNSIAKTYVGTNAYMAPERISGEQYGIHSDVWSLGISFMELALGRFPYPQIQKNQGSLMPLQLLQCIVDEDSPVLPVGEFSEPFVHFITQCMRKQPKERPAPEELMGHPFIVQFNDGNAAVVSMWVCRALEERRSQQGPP
UniProt O43325: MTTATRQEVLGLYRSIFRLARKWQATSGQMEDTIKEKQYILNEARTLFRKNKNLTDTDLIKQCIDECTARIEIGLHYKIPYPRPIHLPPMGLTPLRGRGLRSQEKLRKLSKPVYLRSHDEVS
UniProt Q9Y4Y9: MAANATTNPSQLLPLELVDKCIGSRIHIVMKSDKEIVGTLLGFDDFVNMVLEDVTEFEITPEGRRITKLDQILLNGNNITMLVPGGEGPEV
UniProt O15525: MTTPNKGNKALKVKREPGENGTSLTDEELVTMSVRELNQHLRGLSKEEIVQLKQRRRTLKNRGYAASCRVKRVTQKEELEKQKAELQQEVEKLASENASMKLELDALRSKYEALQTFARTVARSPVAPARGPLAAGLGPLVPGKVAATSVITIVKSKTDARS
UniProt Q9H063: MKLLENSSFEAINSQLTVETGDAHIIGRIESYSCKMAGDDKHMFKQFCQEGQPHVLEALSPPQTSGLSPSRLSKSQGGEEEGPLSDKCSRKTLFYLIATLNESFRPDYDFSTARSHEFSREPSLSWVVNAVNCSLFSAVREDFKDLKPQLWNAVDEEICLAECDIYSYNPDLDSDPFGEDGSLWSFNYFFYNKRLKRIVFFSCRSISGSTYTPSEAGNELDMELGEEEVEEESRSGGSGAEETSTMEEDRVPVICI
UniProt Q02779: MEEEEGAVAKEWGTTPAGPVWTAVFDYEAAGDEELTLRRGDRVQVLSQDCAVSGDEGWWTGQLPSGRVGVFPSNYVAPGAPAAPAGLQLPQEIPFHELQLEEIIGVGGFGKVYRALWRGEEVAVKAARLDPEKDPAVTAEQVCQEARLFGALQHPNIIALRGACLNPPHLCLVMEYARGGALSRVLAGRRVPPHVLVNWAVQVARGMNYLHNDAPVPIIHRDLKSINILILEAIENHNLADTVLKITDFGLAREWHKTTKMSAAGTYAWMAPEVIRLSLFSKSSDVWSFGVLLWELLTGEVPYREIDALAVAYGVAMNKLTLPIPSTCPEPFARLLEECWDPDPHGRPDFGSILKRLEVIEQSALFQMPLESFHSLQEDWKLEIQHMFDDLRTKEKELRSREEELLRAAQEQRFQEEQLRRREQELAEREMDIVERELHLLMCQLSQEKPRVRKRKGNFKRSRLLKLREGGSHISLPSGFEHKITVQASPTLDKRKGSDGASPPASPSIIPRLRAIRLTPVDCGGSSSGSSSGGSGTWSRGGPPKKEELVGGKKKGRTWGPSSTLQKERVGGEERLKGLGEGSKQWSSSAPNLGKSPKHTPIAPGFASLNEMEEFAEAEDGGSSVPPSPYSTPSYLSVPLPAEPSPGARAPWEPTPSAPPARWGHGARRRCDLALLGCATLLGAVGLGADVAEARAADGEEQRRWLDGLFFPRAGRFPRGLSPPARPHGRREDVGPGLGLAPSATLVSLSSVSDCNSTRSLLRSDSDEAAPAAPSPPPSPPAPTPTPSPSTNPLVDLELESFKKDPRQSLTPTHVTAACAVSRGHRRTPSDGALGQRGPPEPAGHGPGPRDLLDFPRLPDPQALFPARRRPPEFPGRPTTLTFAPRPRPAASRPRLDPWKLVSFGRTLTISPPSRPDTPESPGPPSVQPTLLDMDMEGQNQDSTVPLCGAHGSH
UniProt Q96LZ2: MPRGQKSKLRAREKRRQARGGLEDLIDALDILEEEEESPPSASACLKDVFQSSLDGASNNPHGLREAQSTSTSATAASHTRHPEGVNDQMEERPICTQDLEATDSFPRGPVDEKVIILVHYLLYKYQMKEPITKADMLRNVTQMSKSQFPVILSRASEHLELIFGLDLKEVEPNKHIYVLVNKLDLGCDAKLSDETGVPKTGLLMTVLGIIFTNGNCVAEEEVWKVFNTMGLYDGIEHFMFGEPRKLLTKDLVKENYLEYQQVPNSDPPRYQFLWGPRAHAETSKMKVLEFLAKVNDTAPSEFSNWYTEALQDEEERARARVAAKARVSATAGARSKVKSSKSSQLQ
UniProt Q86X29: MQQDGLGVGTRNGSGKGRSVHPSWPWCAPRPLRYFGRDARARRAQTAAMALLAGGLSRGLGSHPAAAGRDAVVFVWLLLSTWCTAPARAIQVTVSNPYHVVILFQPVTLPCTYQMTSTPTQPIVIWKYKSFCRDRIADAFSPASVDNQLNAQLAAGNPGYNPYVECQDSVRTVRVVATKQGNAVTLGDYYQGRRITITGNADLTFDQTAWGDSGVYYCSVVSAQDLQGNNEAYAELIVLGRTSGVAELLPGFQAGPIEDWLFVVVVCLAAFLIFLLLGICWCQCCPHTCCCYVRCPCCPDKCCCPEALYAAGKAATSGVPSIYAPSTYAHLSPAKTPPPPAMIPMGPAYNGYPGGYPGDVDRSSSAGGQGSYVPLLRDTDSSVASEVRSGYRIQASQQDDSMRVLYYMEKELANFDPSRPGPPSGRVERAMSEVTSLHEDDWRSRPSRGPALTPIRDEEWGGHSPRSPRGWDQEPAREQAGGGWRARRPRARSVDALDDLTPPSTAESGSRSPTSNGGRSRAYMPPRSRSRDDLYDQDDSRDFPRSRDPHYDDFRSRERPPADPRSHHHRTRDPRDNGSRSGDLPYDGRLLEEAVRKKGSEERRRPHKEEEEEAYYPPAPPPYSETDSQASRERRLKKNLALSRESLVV
UniProt Q969L4: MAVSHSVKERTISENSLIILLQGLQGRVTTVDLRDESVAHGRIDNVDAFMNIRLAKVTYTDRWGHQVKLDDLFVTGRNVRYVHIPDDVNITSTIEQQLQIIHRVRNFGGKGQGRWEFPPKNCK
UniProt Q12851: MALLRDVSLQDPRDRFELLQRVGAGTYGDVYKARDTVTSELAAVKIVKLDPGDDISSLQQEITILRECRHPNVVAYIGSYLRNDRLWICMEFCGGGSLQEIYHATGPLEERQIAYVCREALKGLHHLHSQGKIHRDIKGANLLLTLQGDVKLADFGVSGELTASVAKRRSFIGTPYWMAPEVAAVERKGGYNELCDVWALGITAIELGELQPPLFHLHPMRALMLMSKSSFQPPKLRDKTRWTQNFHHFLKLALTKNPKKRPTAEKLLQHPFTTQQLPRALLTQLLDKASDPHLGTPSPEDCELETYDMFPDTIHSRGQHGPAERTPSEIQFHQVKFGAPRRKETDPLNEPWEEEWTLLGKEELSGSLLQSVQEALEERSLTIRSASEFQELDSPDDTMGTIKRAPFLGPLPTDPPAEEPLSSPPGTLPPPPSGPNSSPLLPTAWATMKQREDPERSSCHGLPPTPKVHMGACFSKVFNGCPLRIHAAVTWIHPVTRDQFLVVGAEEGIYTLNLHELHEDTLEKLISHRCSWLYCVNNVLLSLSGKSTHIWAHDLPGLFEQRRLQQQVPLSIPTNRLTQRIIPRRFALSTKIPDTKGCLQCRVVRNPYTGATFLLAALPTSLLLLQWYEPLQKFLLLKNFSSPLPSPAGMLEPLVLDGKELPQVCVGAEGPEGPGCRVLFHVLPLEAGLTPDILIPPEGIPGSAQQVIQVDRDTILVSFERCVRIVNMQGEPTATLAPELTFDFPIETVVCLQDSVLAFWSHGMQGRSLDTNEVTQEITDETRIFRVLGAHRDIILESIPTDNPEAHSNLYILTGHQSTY

Compound: C1=CC=C(C=C1)C2=NC(=C(N2)C3=CC=NC=C3)C4=CC(=C(C=C4)Cl)O
Assay: log2 fold change, soluble protein after heating vs DMSO (PISA); higher = thermal stabilisation; K562 cells, 10 uM, 30 min; active = over 0.2 and 3.5 SD of the protein, either way, in both replicates (recomputed)
Method in brief: (§1)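 Soluble protein was quantified by TMTpro 16plex LC-MS/MS after channel sums were equalised. It was obtained as the supernatant after 21,000xg for 90 min from pooled aliquots of K562 cells (2×10^6 cells/mL, 10 μM compound, 30 min) heated for 3 min across 48°C-58°C and extracted in PBS with 0.5% NP-40 at 4°C. Thermal stability values are relative to control samples and come from duplicates. They are given as log2 fold changes.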

log2 fold change, inactive:
LRRC8B (UniProt Q6P9F7) -0.139
MAP7D3 (UniProt Q8IWC1) 0.084
MAFF (UniProt Q9ULX9) -0.057
MAP3K3 isoform 2 (UniProt Q99759) 0.056
LYPLA1, A0A087X1K9 -0.105
MAGEA1 (UniProt P43355) -0.115
MAPK11 (UniProt Q15759) 0.744
MAML2 (UniProt Q8IZL2) -0.206
LRRCC1 (UniProt Q9C099) 0.257
LRRC8E (UniProt Q6NSJ5) -0.04
MAPKAP1 (UniProt Q9BPZ7) -0.108
MAP2K5 (UniProt Q13163) 0.145
MAML1 (UniProt Q92585) -0.004
LYRM1 (UniProt O43325) -0.063
LSM5 (UniProt Q9Y4Y9) -0.076
MAFG (UniProt O15525) -0.068
MAF1 (UniProt Q9H063) -0.214

Compound: C1=CC=C2C(=C1)C3=NNC4=CC=CC(=C43)C2=O
Assay: as above
Method in brief: as §1

log2 fold change, inactive:
MANSC1 (UniProt Q9H8J5) -0.059
MAPK7 (UniProt Q13164) 0.14
MAFF (UniProt Q9ULX9) 0.019
MAGI3 isoform 1 (UniProt Q5TCQ9) 0.08
MAP3K10 (UniProt Q02779) 0.024
LSM14A, A0A140TA76 0.129
MAN2B1 (UniProt M0QYZ1) -0.196
MAGEB10 (UniProt Q96LZ2) 0.022
LRRCC1 (UniProt Q9C099) 0.123
MAP2K5 (UniProt Q13163) -0.036
MAPRE3 isoform 2 (UniProt Q9UPY8) -0.073
MAFG (UniProt O15525) 0.001

Compound: C1CCN(C1)C(=O)NC2=CC=CC(=C2)NC3=NC=C(C(=N3)NCCC4=CN=CN4)Br
Assay: as above
Method in brief: as §1

log2 fold change, inactive:
LSR isoform 3 (UniProt Q86X29) -0.169
MANSC1 (UniProt Q9H8J5) 0.061
LSM10 (UniProt Q969L4) -0.095
MAGI3 isoform 1 (UniProt Q5TCQ9) -0.036
MAP3K10 (UniProt Q02779) 0.041
MAP3K3 isoform 2 (UniProt Q99759) 0.058
LSM14A, A0A140TA76 0.021
MAPK11 (UniProt Q15759) -0.56
MAGEB10 (UniProt Q96LZ2) -0.094
LRRCC1 (UniProt Q9C099) 0.121
MAP4K4 isoform 6 (UniProt O95819) -0.168
LRRC8E (UniProt Q6NSJ5) 0.02
MAPKAP1 (UniProt Q9BPZ7) -0.001
LYRM1 (UniProt O43325) 0.014
LSM5 (UniProt Q9Y4Y9) 0.216
MAP4K2 (UniProt Q12851) -0.413
MAPRE3 isoform 2 (UniProt Q9UPY8) 0.012
